The assay has as its target mouse CCR2 and mouse CSF1R co-expressed on the same ExpiCHO cells (mouse) (UniProt P51683+P09581). Kind of assay: flow cytometry on transiently transfected ExpiCHO cells. For orientation: A flow cytometer gives signals particle by particle.

Sequences of proteins named here, by UniProt entry; tags and fusion partners are left off. A change or cut given only in a name is not applied to a line headed by its entry.
UniProt P51683: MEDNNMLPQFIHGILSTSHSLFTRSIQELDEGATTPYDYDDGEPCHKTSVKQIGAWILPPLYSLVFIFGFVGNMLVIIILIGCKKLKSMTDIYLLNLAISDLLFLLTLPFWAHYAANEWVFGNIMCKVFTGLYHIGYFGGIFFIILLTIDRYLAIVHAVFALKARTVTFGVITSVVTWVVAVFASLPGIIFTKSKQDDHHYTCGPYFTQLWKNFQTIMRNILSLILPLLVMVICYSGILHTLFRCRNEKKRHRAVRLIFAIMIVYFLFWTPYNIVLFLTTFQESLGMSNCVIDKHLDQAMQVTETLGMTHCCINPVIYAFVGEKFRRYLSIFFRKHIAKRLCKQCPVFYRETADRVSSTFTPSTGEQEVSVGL
UniProt P09581: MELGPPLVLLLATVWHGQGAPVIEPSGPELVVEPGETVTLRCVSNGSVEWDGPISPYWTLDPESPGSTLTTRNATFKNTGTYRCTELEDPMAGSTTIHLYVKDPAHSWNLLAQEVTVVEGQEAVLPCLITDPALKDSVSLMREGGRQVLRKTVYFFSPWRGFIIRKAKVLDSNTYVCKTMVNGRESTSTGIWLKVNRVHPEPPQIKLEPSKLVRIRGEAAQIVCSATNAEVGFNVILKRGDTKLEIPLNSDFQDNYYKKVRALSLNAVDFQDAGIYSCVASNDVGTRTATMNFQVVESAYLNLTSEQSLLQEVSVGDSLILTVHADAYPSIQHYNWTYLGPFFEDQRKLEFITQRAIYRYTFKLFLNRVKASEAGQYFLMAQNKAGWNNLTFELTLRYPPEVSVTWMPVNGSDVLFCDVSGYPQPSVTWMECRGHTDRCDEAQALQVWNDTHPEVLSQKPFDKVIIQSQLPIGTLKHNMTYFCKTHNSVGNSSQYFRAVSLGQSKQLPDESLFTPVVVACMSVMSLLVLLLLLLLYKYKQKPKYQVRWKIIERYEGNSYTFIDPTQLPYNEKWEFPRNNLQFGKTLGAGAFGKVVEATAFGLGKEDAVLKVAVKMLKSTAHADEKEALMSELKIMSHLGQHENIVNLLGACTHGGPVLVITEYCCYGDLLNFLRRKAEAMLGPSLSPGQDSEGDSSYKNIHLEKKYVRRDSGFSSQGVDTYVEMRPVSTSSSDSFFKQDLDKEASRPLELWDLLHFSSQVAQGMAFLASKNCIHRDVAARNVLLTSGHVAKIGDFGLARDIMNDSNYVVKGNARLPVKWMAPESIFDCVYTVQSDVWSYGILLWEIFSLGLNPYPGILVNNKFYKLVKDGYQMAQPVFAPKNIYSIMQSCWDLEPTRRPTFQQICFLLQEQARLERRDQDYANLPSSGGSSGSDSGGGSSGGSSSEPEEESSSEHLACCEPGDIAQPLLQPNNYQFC

No constants are given. Whether binding was seen depends on the method and setting. Some results given as binding are weak or reduced against the parent protein; the word gives no strength.

B1: UniTI-01 (multispecific molecule #1), anti-CCR2/anti-CSF1R bispecific antibody (bispecific antibody)
heavy 1: QVQLQESGPGLVQPSQTLSLTCTVSGFSLTDFSVHWVRQPPGKGLEWMGRIRSEGNTDYNSALKSRLSISRDTSKSQVFLKMNSLQTEDTAIYFCTRGDILGFGYWGQGVMVTVSSAQTTAPSVYPLAPGCGDTTSSTVTLGCLVKGYFPEPVTVTWNSGALSSDVHTFPAVLQSGLYTLTSSVTSSTWPSQTVTCNVAHPASSTKVDKKVERRTIKPCPPCKCPAPNLLGGPSVFIFPPKIKDVLMISLSPIVTCVVVDVSEDDPDVQISWFVNNVEVHTAQTQTHREDYNSTLRVVSALPIQHQDWMSGKEFKCKVNNKDLPAPIERTISKPKGSVRAPQVYVLPPCEEEMTKKQVTLWCMVTDFMPEDIYVEWTNNGKTELNYKNTEPVLDSDGSYFMYSKLRVEKKNWVERNSYSCSVVHEGLHNHHTTKSFSRTPGK
light 1: DIVMTQSPLSVSVTPGESASISCRSSKSLLHFKGITFVYWYLQKPGQSPQLLIFRMSSLASGVPDRFSGSGSETDFTLKISRVEAEDVGTYYCGQLLENPYTFGAGTKLELKRADAAPTVSIFPPSMEQLTSGGATVVCFVNNFYPRDISVKWKIDGSEQRDGVLDSVTDQDSKDSTYSMSSTLSLTKVEYERHNLYTCEVVHKTSSSPVVKSFNRNEC
heavy 2: QVQLQQSGAELVKPGSSVKISCKASGYTFTSNFMHWIKQQPGNGLEWIGWIYPGDGDTEYNQKFNGKATLTADKSSSTAYMQLSSLTSEDSAVYFCAVNYGGYVLDAWGQGASVTVSSAETTAPSVYPLAPGTALKSNSMVTLGCLVKGYFPEPVTVTWNSGALSSGVHTFPAVLQSGLYTLTSSVTVPSSTWSSQAVTCNVAHPASSTKVDKKIVPRECNTIKPCPPCKCPAPNLLGGPSVFIFPPKIKDVLMISLSPIVTCVVVDVSEDDPDVQISWFVNNVEVHTAQTQTHREDYNSTLRVVSALPIQHQDWMSGKEFKCKVNNKDLPAPIERTISKPKGSVRAPQVCVLPPPEEEMTKKQVTLSCAVTDFMPEDIYVEWTNNGKTELNYKNTEPVLDSDGSYFMVSKLRVEKKNWVERNSYSCSVVHEGLHNHHTTKSFSRTPGK
light 2: EIVLTQSPTTMAASPGEKVTITCRASSSTNYMSWYQQKSGASPKPWIYETSKLASGVPDRFSGSGSGTSYSFTISSMETEDAATYYCHQWSSTPLTFGSGTKLEIKRADAAPTVSIFPPSMEQLTSGGATVVCFVNNFYPRDISVKWKIDGSEQRDGVLDSVTDQDSKDSTYSMSSTLSLTKVEYERHNLYTCEVVHKTSSSPVVKSFNRNEC
As to B1, the binding result is listed as “binds”.

The values are drawn from US20200071417A1.
